Values quoted from earlier work as cited in patent US20070265340A1, “Treatment of fatty liver” (priority 2006, published 2007).
At least one structure is not confirmed: it was looked up by name or label, or the drawing left a doubt.

Key:
PPAR-gamma = target: T1, PPAR-gamma (Homo sapiens, UniProt P37231)
T1 sequence (P37231 1-505): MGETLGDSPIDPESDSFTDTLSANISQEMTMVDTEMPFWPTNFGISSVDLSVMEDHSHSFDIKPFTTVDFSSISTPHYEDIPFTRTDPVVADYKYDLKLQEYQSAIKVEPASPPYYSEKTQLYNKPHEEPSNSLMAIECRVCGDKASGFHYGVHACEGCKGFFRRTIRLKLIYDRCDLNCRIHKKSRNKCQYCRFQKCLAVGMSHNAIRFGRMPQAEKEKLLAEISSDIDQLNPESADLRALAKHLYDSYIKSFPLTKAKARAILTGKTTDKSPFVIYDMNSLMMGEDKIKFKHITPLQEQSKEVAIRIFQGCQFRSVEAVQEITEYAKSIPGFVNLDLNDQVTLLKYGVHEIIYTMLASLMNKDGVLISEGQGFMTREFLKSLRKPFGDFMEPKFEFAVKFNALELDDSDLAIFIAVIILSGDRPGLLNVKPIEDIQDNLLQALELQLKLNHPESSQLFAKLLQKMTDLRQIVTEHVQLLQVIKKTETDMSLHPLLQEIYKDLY

PPAR-alpha = target: T2, PPAR-alpha (Homo sapiens, UniProt Q07869)
T2 sequence (Q07869 1-468): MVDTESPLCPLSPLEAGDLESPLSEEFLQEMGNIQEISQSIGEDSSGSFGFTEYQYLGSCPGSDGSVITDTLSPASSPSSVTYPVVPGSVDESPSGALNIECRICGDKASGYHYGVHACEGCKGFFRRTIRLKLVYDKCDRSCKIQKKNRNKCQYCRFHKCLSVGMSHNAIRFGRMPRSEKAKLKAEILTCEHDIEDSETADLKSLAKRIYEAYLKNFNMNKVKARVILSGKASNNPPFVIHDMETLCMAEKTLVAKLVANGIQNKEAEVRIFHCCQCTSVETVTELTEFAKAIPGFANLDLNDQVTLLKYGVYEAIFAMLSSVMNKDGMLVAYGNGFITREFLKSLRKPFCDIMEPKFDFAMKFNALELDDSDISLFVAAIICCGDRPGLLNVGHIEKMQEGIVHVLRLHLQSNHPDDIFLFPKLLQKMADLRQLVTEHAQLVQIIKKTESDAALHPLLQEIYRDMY

CC/C=C\C/C=C\C/C=C\C/C=C\C/C=C\C/C=C\CCC(=O)O [DHA, docosahexaenoic acid]
affinity for PPAR-gamma (PPAR-gamma): high affinity | affinity for PPAR-alpha (PPAR-alpha): high affinity

CC/C=C\C/C=C\C/C=C\C/C=C\C/C=C\CCCC(=O)O [EPA, eicosapentaenoic acid]
affinity for PPAR-gamma (PPAR-gamma): high affinity | affinity for PPAR-alpha (PPAR-alpha): high affinity
